Experimental data taken from the supplement of paper PMC4604168 (melanoma cell lines).
The list shows a part of the results. Many values rest on one well or one pass, so single values are uncertain.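 Cells were imaged in 1,536-well plates, and nuclei stained with an antibody against cleaved PARP were counted against all DNA-stained nuclei to give the apoptosis fraction. Screening doses were chosen to leave most cells alive, and resting and induced cleaved-PARP levels differ strongly between cell lines.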

system: CBRC016 (line from a melanoma biopsy); assay: cleaved PARP positive nuclei fraction relative to DMSO control; melanoma cells; higher = more apoptosis; conditions: library dose: low library concentration; 72 h

Row | SMILES | cleaved PARP positive nuclei fraction [%]
1 | CC(=O)c1c(C)c2cnc(Nc3ccc(N4CCNCC4)cn3)nc2n(C2CCCC2)c1=O [palbociclib] + Cn1cncc1[C@@](N)(c1ccc(Cl)cc1)c1ccc2c(c1)c(-c1cccc(Cl)c1)cc(=O)n2C [tipifarnib] (first compound 0.04 µM, partner dose 0.01 µM) | 158
2 | C[C@]1(c2nc3c(C(N)=O)cccc3[nH]2)CCCN1 [Veliparib] + Cc1ccc(NC(=O)c2cccc(N(C)C)c2)cc1NC(=O)c1ccc(O)cc1 [ZM336372] (first compound 1.4 µM, partner dose 2 µM) | 90.6
3 | C=CCn1c(=O)c2cnc(Nc3ccc(N4CCN(C)CC4)cc3)nc2n1-c1cccc(C(C)(C)O)n1 + CN(C)S(=O)(=O)c1ccc2c(c1)/C(=C/c1cc3c([nH]1)CCCC3)C(=O)N2 [SU6656] (first compound 0.02 µM, partner dose 0.4 µM) | 34
4 | Clc1ccc(Nc2nnc(Cc3ccncc3)c3ccccc23)cc1 [vatalanib] + O=C(CCCCCCC(=O)Nc1ccccc1)NO [vorinostat] (first compound 2 µM, partner dose 0.08 µM) | 166
5 | OCc1c[nH]c2ccccc12 [Indole-3-carbinol] + COc1cc(Nc2ncc(F)c(Nc3ccc4c(n3)NC(=O)C(C)(C)O4)n2)cc(OC)c1OC [Tamatinib] (first compound 0.8 µM, partner dose 0.4 µM) | 77.1
6 | COCC[n+]1c2c(n(Cc3cnccn3)c1C)C(=O)c1ccccc1C2=O + C=CCn1c(=O)c2cnc(Nc3ccc(N4CCN(C)CC4)cc3)nc2n1-c1cccc(C(C)(C)O)n1 [MK1775] (first compound 0.0004 µM, partner dose 0.02 µM) | 89.6
7 | C=CCNC1=C2C[C@@H](C)C[C@H](OC)[C@H](O)[C@@H](C)/C=C(\C)[C@H](OC(N)=O)[C@@H](OC)/C=C\C=C(/C)C(=O)NC(=CC1=O)C2=O [Tanespimycin] + COc1cc(Nc2ncc(F)c(Nc3ccc4c(n3)NC(=O)C(C)(C)O4)n2)cc(OC)c1OC [Tamatinib] (first compound 0.002 µM, partner dose 0.4 µM) | 131
8 | OCc1c[nH]c2ccccc12 [Indole-3-carbinol] + C=CCn1c(=O)c2cnc(Nc3ccc(N4CCN(C)CC4)cc3)nc2n1-c1cccc(C(C)(C)O)n1 [MK1775] (first compound 0.8 µM, partner dose 0.02 µM) | 149
9 | Cc1ccc(NC(=O)c2cccc(N(C)C)c2)cc1NC(=O)c1ccc(O)cc1 + CN(NC(=O)CC(=O)NN(C)C(=S)c1ccccc1)C(=S)c1ccccc1 [STA4783] (first compound 2 µM, partner dose 0.006 µM) | 222
10 | Clc1ccc(Nc2nnc(Cc3ccncc3)c3ccccc23)cc1 [vatalanib] + COc1cc2c(Oc3ccc4[nH]c(C)cc4c3F)ncnc2cc1OCCCN1CCCC1 [cediranib] (first compound 2 µM, partner dose 0.4 µM) | 20.8
11 | Cn1nnc2c(C(N)=O)ncn2c1=O [temozolomide] + O=C(O)c1ccc(-c2c[nH]c3ncc(-c4ccccc4)cc23)cc1C1CCCC1 [GSK650394] (first compound 2 µM, partner dose 0.16 µM) | 115
12 | CC1(C)NC(=O)N(c2ccc([N+](=O)[O-])c(C(F)(F)F)c2)C1=O [nilutamide] + CC(C)(C)c1cnc(CSc2cnc(NC(=O)C3CCNCC3)s2)o1 [SNS-032] (first compound 1 µM, partner dose 0.01 µM) | 183
13 | CC(C)(C)c1cnc(CSc2cnc(NC(=O)C3CCNCC3)s2)o1 + CN(C)S(=O)(=O)c1ccc2c(c1)/C(=C/c1cc3c([nH]1)CCCC3)C(=O)N2 [SU6656] (first compound 0.01 µM, partner dose 0.4 µM) | 129
14 | CC(=O)c1c(C)c2cnc(Nc3ccc(N4CCNCC4)cn3)nc2n(C2CCCC2)c1=O [palbociclib] + CN(C)S(=O)(=O)c1ccc2c(c1)/C(=C/c1cc3c([nH]1)CCCC3)C(=O)N2 [SU6656] (first compound 0.04 µM, partner dose 0.4 µM) | 99.1
15 | CO[C@@H]1[C@H](N(C)C(=O)c2ccccc2)C[C@H]2O[C@]1(C)n1c3ccccc3c3c4c(c5c6ccccc6n2c5c31)C(=O)NC4 [Midostaurin] + C[C@@H]1CCN(C(=O)CC#N)C[C@@H]1N(C)c1ncnc2[nH]ccc12 [CP690550] (first compound 0.08 µM, partner dose 1 µM) | 301
16 | O=C(CCCCCCC(=O)Nc1ccccc1)NO [vorinostat] + CC1(C)NC(=O)N(c2ccc([N+](=O)[O-])c(C(F)(F)F)c2)C1=O [nilutamide] (first compound 0.08 µM, partner dose 1 µM) | 71.8
17 | Cc1ccc(NC(=O)c2cccc(N(C)C)c2)cc1NC(=O)c1ccc(O)cc1 + COc1cc2c(Oc3ccc4[nH]c(C)cc4c3F)ncnc2cc1OCCCN1CCCC1 [cediranib] (first compound 2 µM, partner dose 0.4 µM) | 240
18 | OCc1c[nH]c2ccccc12 [Indole-3-carbinol] + CN(NC(=O)CC(=O)NN(C)C(=S)c1ccccc1)C(=S)c1ccccc1 [STA4783] (first compound 0.8 µM, partner dose 0.006 µM) | 49.6
19 | Cn1c(Nc2ccc(C(F)(F)F)cc2)nc2cc(Oc3ccnc(-c4ncc(C(F)(F)F)[nH]4)c3)ccc21 + NCC(=O)Nc1ccc(-n2nc(C(F)(F)F)cc2-c2ccc3c(ccc4ccccc43)c2)cc1 [OSU03012] (first compound 0.08 µM, partner dose 1 µM) | 399
20 | CO[C@@H]1[C@H](N(C)C(=O)c2ccccc2)C[C@H]2O[C@]1(C)n1c3ccccc3c3c4c(c5c6ccccc6n2c5c31)C(=O)NC4 [Midostaurin] + COc1cc2c(Oc3ccc4[nH]c(C)cc4c3F)ncnc2cc1OCCCN1CCCC1 [cediranib] (first compound 0.08 µM, partner dose 0.4 µM) | 271
21 | C=CCNC1=C2C[C@@H](C)C[C@H](OC)[C@H](O)[C@@H](C)/C=C(\C)[C@H](OC(N)=O)[C@@H](OC)/C=C\C=C(/C)C(=O)NC(=CC1=O)C2=O [Tanespimycin] + O=C(O)c1ccc(-c2c[nH]c3ncc(-c4ccccc4)cc23)cc1C1CCCC1 [GSK650394] (first compound 0.002 µM, partner dose 0.16 µM) | 133
22 | CC1(C)NC(=O)N(c2ccc([N+](=O)[O-])c(C(F)(F)F)c2)C1=O [nilutamide] + C=CCn1c(=O)c2cnc(Nc3ccc(N4CCN(C)CC4)cc3)nc2n1-c1cccc(C(C)(C)O)n1 [MK1775] (first compound 1 µM, partner dose 0.02 µM) | 141
23 | Nc1cccc2c1CN(C1CCC(=O)NC1=O)C2=O (stereo not given) [lenalidomide] + CC1(C)NC(=O)N(c2ccc([N+](=O)[O-])c(C(F)(F)F)c2)C1=O [nilutamide] (first compound 1 µM, partner dose 1 µM) | 96.3
24 | CO[C@@H]1[C@H](N(C)C(=O)c2ccccc2)C[C@H]2O[C@]1(C)n1c3ccccc3c3c4c(c5c6ccccc6n2c5c31)C(=O)NC4 [Midostaurin] + NCC(=O)Nc1ccc(-n2nc(C(F)(F)F)cc2-c2ccc3c(ccc4ccccc43)c2)cc1 [OSU03012] (first compound 0.08 µM, partner dose 1 µM) | 227
25 | C=CCn1c(=O)c2cnc(Nc3ccc(N4CCN(C)CC4)cc3)nc2n1-c1cccc(C(C)(C)O)n1 + C[C@@H]1CCN(C(=O)CC#N)C[C@@H]1N(C)c1ncnc2[nH]ccc12 [CP690550] (first compound 0.02 µM, partner dose 1 µM) | 38.7
26 | C=CCNC1=C2C[C@@H](C)C[C@H](OC)[C@H](O)[C@@H](C)/C=C(\C)[C@H](OC(N)=O)[C@@H](OC)/C=C\C=C(/C)C(=O)NC(=CC1=O)C2=O [Tanespimycin] + C=CCn1c(=O)c2cnc(Nc3ccc(N4CCN(C)CC4)cc3)nc2n1-c1cccc(C(C)(C)O)n1 [MK1775] (first compound 0.002 µM, partner dose 0.02 µM) | 196
27 | CC(C)(C)c1cnc(CSc2cnc(NC(=O)C3CCNCC3)s2)o1 + Cc1cc(N2CCOCC2)cc2[nH]c(-c3c(NC[C@@H](O)c4cccc(Cl)c4)cc[nH]c3=O)nc12 [BMS536924] (first compound 0.01 µM, partner dose 0.2 µM) | 92.7
28 | Cc1ccc(NC(=O)c2cccc(N(C)C)c2)cc1NC(=O)c1ccc(O)cc1 + NCC(=O)Nc1ccc(-n2nc(C(F)(F)F)cc2-c2ccc3c(ccc4ccccc43)c2)cc1 [OSU03012] (first compound 2 µM, partner dose 1 µM) | 84.5
29 | OCc1c[nH]c2ccccc12 [Indole-3-carbinol] + O=C(CCCCCCC(=O)Nc1ccccc1)NO [vorinostat] (first compound 0.8 µM, partner dose 0.08 µM) | 436
30 | C=CCn1c(=O)c2cnc(Nc3ccc(N4CCN(C)CC4)cc3)nc2n1-c1cccc(C(C)(C)O)n1 + NCC(=O)Nc1ccc(-n2nc(C(F)(F)F)cc2-c2ccc3c(ccc4ccccc43)c2)cc1 [OSU03012] (first compound 0.02 µM, partner dose 1 µM) | 453

Records 28 to 29, reprinted for reference:
Row | SMILES | cleaved PARP positive nuclei fraction [%]
28 | Cc1ccc(NC(=O)c2cccc(N(C)C)c2)cc1NC(=O)c1ccc(O)cc1 + NCC(=O)Nc1ccc(-n2nc(C(F)(F)F)cc2-c2ccc3c(ccc4ccccc43)c2)cc1 [OSU03012] (first compound 2 µM, partner dose 1 µM) | 84.5
29 | OCc1c[nH]c2ccccc12 [Indole-3-carbinol] + O=C(CCCCCCC(=O)Nc1ccccc1)NO [vorinostat] (first compound 0.8 µM, partner dose 0.08 µM) | 436
